{"sequences": {"note": "The chains behind the UniProt entries cited, without tags or fusion partners.", "UniProt P04050": "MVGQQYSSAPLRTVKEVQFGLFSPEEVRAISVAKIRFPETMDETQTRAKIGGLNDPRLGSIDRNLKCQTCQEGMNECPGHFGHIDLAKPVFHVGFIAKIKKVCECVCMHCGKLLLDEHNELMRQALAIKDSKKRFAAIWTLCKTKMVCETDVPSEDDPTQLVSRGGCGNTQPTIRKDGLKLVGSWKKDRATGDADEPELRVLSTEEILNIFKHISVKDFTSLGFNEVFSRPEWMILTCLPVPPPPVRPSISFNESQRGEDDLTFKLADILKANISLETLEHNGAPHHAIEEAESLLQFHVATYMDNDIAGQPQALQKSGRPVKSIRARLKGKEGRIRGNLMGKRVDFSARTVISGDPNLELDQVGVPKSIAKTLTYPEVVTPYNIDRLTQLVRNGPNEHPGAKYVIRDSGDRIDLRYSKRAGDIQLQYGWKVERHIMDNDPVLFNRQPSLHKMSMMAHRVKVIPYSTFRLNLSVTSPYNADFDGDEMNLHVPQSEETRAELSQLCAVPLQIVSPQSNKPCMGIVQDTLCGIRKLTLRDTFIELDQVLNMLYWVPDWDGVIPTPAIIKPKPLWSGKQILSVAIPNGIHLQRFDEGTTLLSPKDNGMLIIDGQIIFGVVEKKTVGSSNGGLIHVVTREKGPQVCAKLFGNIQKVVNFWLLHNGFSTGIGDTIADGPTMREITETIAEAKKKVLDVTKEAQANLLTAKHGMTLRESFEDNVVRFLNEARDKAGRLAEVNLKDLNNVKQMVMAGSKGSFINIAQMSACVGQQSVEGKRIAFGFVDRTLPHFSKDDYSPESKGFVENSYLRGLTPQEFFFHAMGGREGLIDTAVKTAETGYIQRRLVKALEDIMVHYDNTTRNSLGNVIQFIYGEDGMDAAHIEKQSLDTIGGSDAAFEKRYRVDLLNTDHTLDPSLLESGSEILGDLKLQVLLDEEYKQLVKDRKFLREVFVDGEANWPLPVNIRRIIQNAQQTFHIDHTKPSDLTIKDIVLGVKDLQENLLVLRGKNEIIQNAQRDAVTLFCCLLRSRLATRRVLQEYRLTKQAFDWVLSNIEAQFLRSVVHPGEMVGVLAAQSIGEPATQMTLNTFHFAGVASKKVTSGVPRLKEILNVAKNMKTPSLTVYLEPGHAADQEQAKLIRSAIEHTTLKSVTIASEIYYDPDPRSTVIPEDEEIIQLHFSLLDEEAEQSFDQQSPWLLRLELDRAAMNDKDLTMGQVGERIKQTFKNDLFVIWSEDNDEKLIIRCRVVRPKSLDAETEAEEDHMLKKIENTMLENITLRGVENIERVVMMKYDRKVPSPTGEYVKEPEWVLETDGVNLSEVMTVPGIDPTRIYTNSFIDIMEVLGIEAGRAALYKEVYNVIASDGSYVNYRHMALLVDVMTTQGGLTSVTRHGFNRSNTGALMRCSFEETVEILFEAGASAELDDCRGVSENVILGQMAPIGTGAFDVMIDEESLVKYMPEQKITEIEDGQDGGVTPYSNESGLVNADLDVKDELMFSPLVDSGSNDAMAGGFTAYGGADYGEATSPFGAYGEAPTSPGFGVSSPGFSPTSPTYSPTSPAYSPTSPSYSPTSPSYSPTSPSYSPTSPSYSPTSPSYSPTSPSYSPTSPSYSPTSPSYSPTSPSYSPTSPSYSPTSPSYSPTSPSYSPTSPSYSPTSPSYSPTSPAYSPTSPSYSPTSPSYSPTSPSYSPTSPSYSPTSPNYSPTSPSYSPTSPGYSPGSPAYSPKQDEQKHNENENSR"}, "source": "paper PMC3019149", "binders": {"B1": {"name": "Swe1-MYC (protein, UniProt P32944 1-819)", "chain": "MSSLDEDEEDFEMLDTENLQFMGKKMFGKQAGEDESDDFAIGGSTPTNKLKFYPYSNNKLTRSTGTLNLSLSNTALSEANSKFLGKIEEEEEEEEEGKDEESVDSRIKRWSPFHENESVTTPITKRSAEKTNSPISLKQWNQRWFPKNDARTENTSSSSSYSVAKPNQSAFTSSGLVSKMSMDTSLYPAKLRIPETPVKKSPLVEGRDHKHVHLSSSKNASSSLSVSPLNFVEDNNLQEDLLFSDSPSSKALPSIHVPTIDSSPLSEAKYHAHDRHNNQTNILSPTNSLVTNSSPQTLHSNKFKKIKRARNSVILKNRELTNSLQQFKDDLYGTDENFPPPIIISSHHSTRKNPQPYQFRGRYDNDTDEEISTPTRRKSIIGATSQTHRESRPLSLSSAIVTNTTSAETHSISSTDSSPLNSKRRLISSNKLSANPDSHLFEKFTNVHSIGKGQFSTVYQVTFAQTNKKYAIKAIKPNKYNSLKRILLEIKILNEVTNQITMDQEGKEYIIDYISSWKFQNSYYIMTELCENGNLDGFLQEQVIAKKKRLEDWRIWKIIVELSLALRFIHDSCHIVHLDLKPANVMITFEGNLKLGDFGMATHLPLEDKSFENEGDREYIAPEIISDCTYDYKADIFSLGLMIVEIAANVVLPDNGNAWHKLRSGDLSDAGRLSSTDIHSESLFSDITKVDTNDLFDFERDNISGNSNNAGTSTVHNNSNINNPNMNNGNDNNNVNTAATKNRLILHKSSKIPAWVPKFLIDGESLERIVRWMIEPNYERRPTANQILQTEECLYVEMTRNAGAIIQEDDFGPKPKFFI"}, "B2": {"name": "Rrd1-MYC (protein, UniProt P40454 1-393)", "chain": "MSLDRVDWPHATFSTPVKRIFDTQTTLDFQSSLAIHRIKYHLHKYTTLISHCSDPDPHATASSIAMVNGLMGVLDKLAHLIDETPPLPGPRRYGNLACREWHHKLDERLPQWLQEMLPSEYHEVVPELQYYLGNSFGSSTRLDYGTGHELSFMATVAALDMLGMFPHMRGADVFLLFNKYYTIMRRLILTYTLEPAGSHGVWGLDDHFHLVYILGSSQWQLLDAQAPLQPREILDKSLVREYKDTNFYCQGINFINEVKMGPFEEHSPILYDIAVTVPRWSKVCKGLLKMYSVEVLKKFPVVQHFWFGTGFFPWVNIQNGTDLPVFEEKEEESIEQANAGSPGREQTSTRFPTSTSMPPPGVPPSGNNINYLLSHQNQSHRNQTSFSRDRLRR"}}, "key": {"[1]": {"molecular_target": "Rpb1, the large subunit of RNA polymerase II (S. cerevisiae (endogenous in the yeast strains used)) (UniProt P04050)", "assay": "co-IP; 8WG16 antibody (anti-Rpb1) covalently coupled to AminoLink matrix; total yeast extracts of cells expressing MYC- or GFP-tagged proteins, untreated or treated with rapamycin (200 ng/ml for 30 min); washed four times with 50 mM Tris-HCl pH 7.5, 150 mM NaCl, 0.1% NP40; Western blot with anti-MYC or anti-GFP"}, "GST-Apn1 (S. cerevisiae)": {"molecular_target": "T1, GST-Apn1 (S. cerevisiae) (UniProt P22936)", "T1 sequence": "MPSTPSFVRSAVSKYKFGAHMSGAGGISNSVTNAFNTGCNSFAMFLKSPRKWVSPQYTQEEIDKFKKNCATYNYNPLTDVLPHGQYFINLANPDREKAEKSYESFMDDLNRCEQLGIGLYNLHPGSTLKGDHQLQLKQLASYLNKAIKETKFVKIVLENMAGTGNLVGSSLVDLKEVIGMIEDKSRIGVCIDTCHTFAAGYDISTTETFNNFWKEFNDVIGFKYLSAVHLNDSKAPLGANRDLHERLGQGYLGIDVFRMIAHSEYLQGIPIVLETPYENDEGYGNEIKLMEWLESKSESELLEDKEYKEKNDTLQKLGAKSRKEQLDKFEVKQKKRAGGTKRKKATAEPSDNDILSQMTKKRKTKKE", "assay": "pull-down; GST-CTD or GST-Apn1 bound from yeast extracts (cells untreated or treated with rapamycin 200 ng/ml for 2 h) to the GST affinity matrix and not eluted; 1 mg of a second extract with Rrd1-MYC or Yap8-MYC applied for 1 h at room temperature; washed with 20 bed volumes of PBS; Western blot with anti-MYC and anti-GST; only the target purified"}}, "note": "These are yes or no findings as the source states them, for the method shown. Binding seen in cells or lysates may run through a third protein. Tags and fused reporters may be left off the sequences shown.", "data": [{"binder": "B1", "values": [{"measurement": "binding", "setting": "[1]", "result": "no binding"}]}, {"binder": "B2", "values": [{"measurement": "binding", "setting": "GST-Apn1 (S. cerevisiae)", "result": "no binding"}]}]}
